Paper doi:10.1101/2023.09.21.558883
Like-named read-outs stand apart in the source and are kept apart here. These are yes or no findings as the source states them, for the method shown. In cells and extracts the contact can be indirect. Some results given as binding are weak or reduced against the parent protein; the word gives no strength. For some of these results: Sequences can lack the tags named with a protein. Each block holds one molecule with its values, some of them ahead of it.

Chains of the proteins cited; added tags and fusions are not shown.
UniProt Q91YE7: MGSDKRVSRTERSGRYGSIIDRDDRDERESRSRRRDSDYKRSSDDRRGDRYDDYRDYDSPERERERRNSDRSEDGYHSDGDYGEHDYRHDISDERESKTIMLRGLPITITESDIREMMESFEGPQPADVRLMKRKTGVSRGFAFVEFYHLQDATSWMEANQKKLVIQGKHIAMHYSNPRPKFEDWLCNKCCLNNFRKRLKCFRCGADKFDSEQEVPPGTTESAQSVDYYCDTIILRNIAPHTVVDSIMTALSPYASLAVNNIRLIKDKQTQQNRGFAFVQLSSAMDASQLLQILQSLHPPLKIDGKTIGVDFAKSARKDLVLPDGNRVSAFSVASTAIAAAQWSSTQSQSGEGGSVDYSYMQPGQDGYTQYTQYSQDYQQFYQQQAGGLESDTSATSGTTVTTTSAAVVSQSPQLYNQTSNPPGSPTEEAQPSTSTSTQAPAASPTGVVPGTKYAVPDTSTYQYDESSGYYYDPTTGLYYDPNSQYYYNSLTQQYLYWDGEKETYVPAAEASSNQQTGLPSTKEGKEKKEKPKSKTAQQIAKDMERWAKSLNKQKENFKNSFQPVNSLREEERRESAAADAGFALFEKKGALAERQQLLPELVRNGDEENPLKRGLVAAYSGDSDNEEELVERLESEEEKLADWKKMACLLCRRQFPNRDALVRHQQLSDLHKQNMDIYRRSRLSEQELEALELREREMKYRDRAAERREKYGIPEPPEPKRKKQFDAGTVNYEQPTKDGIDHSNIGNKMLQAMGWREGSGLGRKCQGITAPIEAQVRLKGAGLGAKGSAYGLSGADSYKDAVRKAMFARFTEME
UniProt P52756: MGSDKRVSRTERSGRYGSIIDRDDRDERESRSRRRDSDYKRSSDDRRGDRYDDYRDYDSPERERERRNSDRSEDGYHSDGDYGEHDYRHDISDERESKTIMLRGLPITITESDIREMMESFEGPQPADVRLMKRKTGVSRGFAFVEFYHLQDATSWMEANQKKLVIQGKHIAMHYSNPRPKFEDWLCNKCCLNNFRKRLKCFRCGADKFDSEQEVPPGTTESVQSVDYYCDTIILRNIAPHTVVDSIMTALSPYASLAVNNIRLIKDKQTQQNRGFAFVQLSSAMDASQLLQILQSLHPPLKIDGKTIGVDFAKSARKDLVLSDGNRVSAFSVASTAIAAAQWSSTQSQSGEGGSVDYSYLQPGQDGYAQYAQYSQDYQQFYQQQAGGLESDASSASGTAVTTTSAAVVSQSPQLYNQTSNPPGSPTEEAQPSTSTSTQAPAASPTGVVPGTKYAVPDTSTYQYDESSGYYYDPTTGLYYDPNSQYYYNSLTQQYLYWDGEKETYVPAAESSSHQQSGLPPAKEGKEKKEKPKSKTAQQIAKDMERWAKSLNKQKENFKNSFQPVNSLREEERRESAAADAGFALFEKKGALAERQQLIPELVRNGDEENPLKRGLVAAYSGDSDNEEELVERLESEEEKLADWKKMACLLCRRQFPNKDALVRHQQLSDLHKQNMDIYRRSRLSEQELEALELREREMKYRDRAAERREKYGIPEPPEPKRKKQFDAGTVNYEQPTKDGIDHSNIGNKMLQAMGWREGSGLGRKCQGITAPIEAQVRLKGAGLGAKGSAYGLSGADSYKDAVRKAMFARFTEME
UniProt P98175: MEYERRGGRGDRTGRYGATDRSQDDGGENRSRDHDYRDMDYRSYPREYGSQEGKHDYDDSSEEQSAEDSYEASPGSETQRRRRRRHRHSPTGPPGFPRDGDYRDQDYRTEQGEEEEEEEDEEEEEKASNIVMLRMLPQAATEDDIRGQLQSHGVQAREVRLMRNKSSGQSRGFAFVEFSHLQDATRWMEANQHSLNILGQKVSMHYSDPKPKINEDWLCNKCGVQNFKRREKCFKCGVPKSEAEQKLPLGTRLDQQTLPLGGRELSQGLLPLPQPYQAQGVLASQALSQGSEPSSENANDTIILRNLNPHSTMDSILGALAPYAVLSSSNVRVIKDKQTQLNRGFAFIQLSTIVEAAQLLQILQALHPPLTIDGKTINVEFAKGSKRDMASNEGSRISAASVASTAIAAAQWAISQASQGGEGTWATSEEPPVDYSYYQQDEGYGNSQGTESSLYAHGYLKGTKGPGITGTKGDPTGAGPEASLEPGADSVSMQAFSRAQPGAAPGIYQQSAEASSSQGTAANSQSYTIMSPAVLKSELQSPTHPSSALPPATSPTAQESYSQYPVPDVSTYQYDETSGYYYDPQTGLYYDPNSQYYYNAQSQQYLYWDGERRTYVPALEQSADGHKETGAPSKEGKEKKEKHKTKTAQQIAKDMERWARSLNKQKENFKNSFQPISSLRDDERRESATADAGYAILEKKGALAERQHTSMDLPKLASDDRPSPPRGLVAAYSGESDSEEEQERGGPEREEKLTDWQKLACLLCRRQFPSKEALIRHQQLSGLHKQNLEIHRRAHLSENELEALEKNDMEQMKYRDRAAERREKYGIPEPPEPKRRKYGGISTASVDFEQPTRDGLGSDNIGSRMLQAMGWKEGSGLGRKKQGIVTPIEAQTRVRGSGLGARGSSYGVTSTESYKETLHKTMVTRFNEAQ
UniProt O43143: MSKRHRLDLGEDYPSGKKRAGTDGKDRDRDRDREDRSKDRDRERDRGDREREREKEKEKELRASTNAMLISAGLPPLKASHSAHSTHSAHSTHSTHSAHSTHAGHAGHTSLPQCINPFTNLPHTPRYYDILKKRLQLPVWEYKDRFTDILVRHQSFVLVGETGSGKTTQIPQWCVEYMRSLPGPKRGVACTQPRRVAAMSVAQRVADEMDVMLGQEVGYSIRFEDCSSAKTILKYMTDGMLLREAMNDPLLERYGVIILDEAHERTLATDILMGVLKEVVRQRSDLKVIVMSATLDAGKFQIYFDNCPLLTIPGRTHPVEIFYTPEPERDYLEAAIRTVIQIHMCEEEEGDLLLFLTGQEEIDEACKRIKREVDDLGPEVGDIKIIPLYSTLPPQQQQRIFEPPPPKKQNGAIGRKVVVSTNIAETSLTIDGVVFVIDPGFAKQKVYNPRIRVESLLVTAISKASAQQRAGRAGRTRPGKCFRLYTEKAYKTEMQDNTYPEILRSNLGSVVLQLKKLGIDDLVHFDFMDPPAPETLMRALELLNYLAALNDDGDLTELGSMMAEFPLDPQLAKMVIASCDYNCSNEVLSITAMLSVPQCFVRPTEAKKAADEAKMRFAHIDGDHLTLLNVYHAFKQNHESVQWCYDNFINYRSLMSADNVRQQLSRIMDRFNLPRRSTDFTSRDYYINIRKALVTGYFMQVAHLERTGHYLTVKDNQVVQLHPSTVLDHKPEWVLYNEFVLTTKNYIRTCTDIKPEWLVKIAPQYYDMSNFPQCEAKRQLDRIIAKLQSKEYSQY

Assays:
SF3A3-Flag (human) [1] = target: T1, SF3A3-Flag (human) (UniProt Q12874); test: co-IP
T1 sequence: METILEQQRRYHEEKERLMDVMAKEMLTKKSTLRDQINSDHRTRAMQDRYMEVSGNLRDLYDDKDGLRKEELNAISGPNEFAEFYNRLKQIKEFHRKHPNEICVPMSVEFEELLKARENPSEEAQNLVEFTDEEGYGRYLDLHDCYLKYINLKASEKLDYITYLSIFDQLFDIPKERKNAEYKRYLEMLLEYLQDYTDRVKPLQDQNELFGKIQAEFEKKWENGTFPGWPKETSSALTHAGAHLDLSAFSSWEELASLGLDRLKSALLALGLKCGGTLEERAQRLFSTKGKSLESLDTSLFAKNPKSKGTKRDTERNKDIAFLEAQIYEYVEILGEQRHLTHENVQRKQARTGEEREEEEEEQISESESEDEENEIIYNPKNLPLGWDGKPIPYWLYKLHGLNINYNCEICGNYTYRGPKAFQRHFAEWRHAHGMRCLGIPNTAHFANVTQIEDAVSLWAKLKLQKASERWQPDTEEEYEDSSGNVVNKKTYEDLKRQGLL

[2] = target: RBM5 (mouse brain) (mouse (endogenous in mouse brain)) (UniProt Q91YE7); test: co-sedimentation
SF3A3-Flag (human) [3] = target: T1, SF3A3-Flag (human); test: co-IP; remark: listed apart in the source

binding (SF3A3-Flag (human) [1]): binds
Molecule: RBM5 (endogenous, human) (from UniProt P52756 1-815)

binding (SF3A3-Flag (human) [1]): binds
Molecule: RBM10 (endogenous, human) (from UniProt P98175 1-930)

binding (SF3A3-Flag (human) [1]): binds
Molecule: RNA helicase DHX15 (from UniProt O43143 1-795) (enzyme)

binding [2]: binds
B1: SF3B1 (mouse brain) (protein, UniProt Q99NB9 1-1304)
chain: MAKIAKTHEDIEAQIREIQGKKAALDEAQGVGLDSTGYYDQEIYGGSDSRFAGYVTSIAATELEDDDDDYSSSTSLLGQKKPGYHAPVALLNDIPQSTEQYDPFAEHRPPKIADREDEYKKHRRTMIISPERLDPFADGGKTPDPKMNARTYMDVMREQHLTKEEREIRQQLAEKAKAGELKVVNGAAASQPPSKRKRRWDQTADQTPGATPKKLSSWDQAETPGHTPSLRWDETPGRAKGSETPGATPGSKIWDPTPSHTPAGAATPGRGDTPGHATPGHGGATSSARKNRWDETPKTERDTPGHGSGWAETPRTDRGGDSIGETPTPGASKRKSRWDETPASQMGGSTPVLTPGKTPIGTPAMNMATPTPGHIMSMTPEQLQAWRWEREIDERNRPLSDEELDAMFPEGYKVLPPPAGYVPIRTPARKLTATPTPLGGMTGFHMQTEDRTMKSVNDQPSGNLPFLKPDDIQYFDKLLVDVDESTLSPEEQKERKIMKLLLKIKNGTPPMRKAALRQITDKAREFGAGPLFNQILPLLMSPTLEDQERHLLVKVIDRILYKLDDLVRPYVHKILVVIEPLLIDEDYYARVEGREIISNLAKAAGLATMISTMRPDIDNMDEYVRNTTARAFAVVASALGIPSLLPFLKAVCKSKKSWQARHTGIKIVQQIAILMGCAILPHLRSLVEIIEHGLVDEQQKVRTISALAIAALAEAATPYGIESFDSVLKPLWKGIRQHRGKGLAAFLKAIGYLIPLMDAEYANYYTREVMLILIREFQSPDEEMKKIVLKVVKQCCGTDGVEANYIKTEILPPFFKHFWQHRMALDRRNYRQLVDTTVELANKVGAAEIISRIVDDLKDEAEQYRKMVMETIEKIMGNLGAADIDHKLEEQLIDGILYAFQEQTTEDSVMLNGFGTVVNALGKRVKPYLPQICGTVLWRLNNKSAKVRQQAADLISRTAVVMKTCQEEKLMGHLGVVLYEYLGEEYPEVLGSILGALKAIVNVIGMHKMTPPIKDLLPRLTPILKNRHEKVQENCIDLVGRIADRGAEYVSAREWMRICFELLELLKAHKKAIRRATVNTFGYIAKAIGPHDVLATLLNNLKVQERQNRVCTTVAIAIVAETCSPFTVLPALMNEYRVPELNVQNGVLKSLSFLFEYIGEMGKDYIYAVTPLLEDALMDRDLVHRQTASAVVQHMSLGVYGFGCEDSLNHLLNYVWPNVFETSPHVIQAVMGALEGLRVAIGPCRMLQYCLQGLFHPARKVRDVYWKIYNSIYIGSQDALIAHYPRIYNDDKNTYIRYDLDYIL

binding (SF3A3-Flag (human) [3]): binds
B2: CHERP (protein, UniProt Q8IWX8 1-916)
chain: MEMPLPPDDQELRNVIDKLAQFVARNGPEFEKMTMEKQKDNPKFSFLFGGEFYSYYKCKLALEQQQLICKQQTPELEPAATMPPLPQPPLAPAAPIPPAQGAPSMDELIQQSQWNLQQQEQHLLALRQEQVTAAVAHAVEQQMQKLLEETQLDMNEFDNLLQPIIDTCTKDAISAGKNWMFSNAKSPPHCELMAGHLRNRITADGAHFELRLHLIYLINDVLHHCQRKQARELLAALQKVVVPIYCTSFLAVEEDKQQKIARLLQLWEKNGYFDDSIIQQLQSPALGLGQYQATLINEYSSVVQPVQLAFQQQIQTLKTQHEEFVTSLAQQQQQQQQQQQQLQMPQMEAEVKATPPPPAPPPAPAPAPAIPPTTQPDDSKPPIQMPGSSEYEAPGGVQDPAAAGPRGPGPHDQIPPNKPPWFDQPHPVAPWGQQQPPEQPPYPHHQGGPPHCPPWNNSHEGMWGEQRGDPGWNGQRDAPWNNQPDAAWNSQFEGPWNSQHEQPPWGGGQREPPFRMQRPPHFRGPFPPHQQHPQFNQPPHPHNFNRFPPRFMQDDFPPRHPFERPPYPHRFDYPQGDFPAEMGPPHHHPGHRMPHPGINEHPPWAGPQHPDFGPPPHGFNGQPPHMRRQGPPHINHDDPSLVPNVPYFDLPAGLMAPLVKLEDHEYKPLDPKDIRLPPPMPPSERLLAAVEAFYSPPSHDRPRNSEGWEQNGLYEFFRAKMRARRRKGQEKRNSGPSRSRSRSKSRGRSSSRSNSRSSKSSGSYSRSRSRSCSRSYSRSRSRSRSRSRSSRSRSRSQSRSRSKSYSPGRRRRSRSRSPTPPSSAGLGSNSAPPIPDSRLGEENKGHQMLVKMGWSGSGGLGAKEQGIQDPIKGGDVRDKWDQYKGVGVALDDPYENYRRNKSYSFIARMKARDECK

binding (SF3A3-Flag (human) [3]): binds
B3: RBM17/SPF45 (protein, UniProt Q96I25 1-401)
chain: MSLYDDLGVETSDSKTEGWSKNFKLLQSQLQVKKAALTQAKSQRTKQSTVLAPVIDLKRGGSSDDRQIVDTPPHVAAGLKDPVPSGFSAGEVLIPLADEYDPMFPNDYEKVVKRQREERQRQRELERQKEIEEREKRRKDRHEASGFARRPDPDSDEDEDYERERRKRSMGGAAIAPPTSLVEKDKELPRDFPYEEDSRPRSQSSKAAIPPPVYEEQDRPRSPTGPSNSFLANMGGTVAHKIMQKYGFREGQGLGKHEQGLSTALSVEKTSKRGGKIIVGDATEKDASKKSDSNPLTEILKCPTKVVLLRNMVGAGEVDEDLEVETKEECEKYGKVGKCVIFEIPGAPDDEAVRIFLEFERVESAIKAVVDLNGRYFGGRVVKACFYNLDKFRVLDLAEQV

binding [2]: binds
B4: SF3A3 (mouse brain) (protein, UniProt Q9D554 1-501)
chain: METILEQQRRYHEEKERLMDVMAKEMLTKKSTLRDQINSDHRTRAMQDRYMEVSGNLRDLYDDKDGLRKEELNAISGPNEFAEFYNRLKQIKEFHRKHPNEICVPMSVEFEELLKARENPSEEAQNLVEFTDEEGYGRYLDLHDCYLKYINLKASEKLDYITYLSIFDQLFDIPKERKNAEYKRYLEMLLEYLQDYTDRVKPLQDQNELFGKIQTDFEKKWDNGTFPGWPKETSSALTHAGAHLDLSAFSSWEELASLGLDRLKSALLALGLKCGGTLEERAQRLFSTKGKSLESLDTSLFAKNPKSKGTKRDTERNKDIAFLEAQIYEYVEILGEQRQLTHENVQRKQARTGEEREEEEEEQISESESEDEENEIIYNPKNLPLGWDGKPIPYWLYKLHGLNINYNCEICGNYTYRGPKAFQRHFAEWRHAHGMRCLGIPNTAHFANVTQIEDAVSLWAKLKLQKASERWQPDTEEEYEDSSGNVVNKKTYEDLKRQGLL
